# From paper PMC5822323
# The chains behind the UniProt entries cited, without tags or fusion partners.
# UniProt Q04640: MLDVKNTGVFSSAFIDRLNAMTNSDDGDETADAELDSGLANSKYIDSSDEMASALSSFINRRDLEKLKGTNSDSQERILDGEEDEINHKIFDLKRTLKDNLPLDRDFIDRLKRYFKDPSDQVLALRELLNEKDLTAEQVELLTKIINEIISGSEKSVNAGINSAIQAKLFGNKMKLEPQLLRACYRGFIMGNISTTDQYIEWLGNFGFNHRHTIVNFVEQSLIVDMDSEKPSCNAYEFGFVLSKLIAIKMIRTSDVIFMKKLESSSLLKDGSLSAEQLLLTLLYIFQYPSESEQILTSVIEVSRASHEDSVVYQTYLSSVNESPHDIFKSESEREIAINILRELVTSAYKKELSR
# No constants are given. Whether binding was seen depends on the method and setting. In cells and extracts the contact can be indirect.
# Key:
# [1] = biological target: GST‐MxiI^L26A (Shigella flexneri) (UniProt P0A225); assay: pull-down; GST‐MxiI or its derivatives bound to glutathione‐Sepharose 4B beads and washed with PBS; incubated 16 hr at 4°C with cleared extract of E. coli expressing the His‐tagged protein; eight washes; eluted with 40 mmol/L Tris pH 8.0, 500 mmol/L NaCl, 50 mmol/L reduced glutathione; Coomassie staining and anti‐His Western blot; only the target purified
# [2] = biological target: GST‐MxiC (Shigella flexneri) (UniProt Q04640); assay: pull-down; reverse set-up: GST‐MxiC as GST fusion, MxiI and its variants fused to a His‐tag (pET30a‐mxiI); Figure S3; only the target purified
Substance,binding [1],binding [2]
His‐Spa40CN (from UniProt Q6XVW1 205-258) (domain or fragment),no binding,
His‐Spa40CT (from UniProt Q6XVW1 205-342) (domain or fragment),no binding,
"His‐tagged MxiI^T82K (pET30a‐MxiI, mutated) (from UniProt P0A225 1-97)",,no binding
"His‐tagged MxiI^T82R (pET30a‐MxiI, mutated) (from UniProt P0A225 1-97)",,no binding
